# Results of single-concentration screens

Chains of the proteins cited; added tags and fusions are not shown. Residues count along the entry.
UniProt A4I591, 1-473: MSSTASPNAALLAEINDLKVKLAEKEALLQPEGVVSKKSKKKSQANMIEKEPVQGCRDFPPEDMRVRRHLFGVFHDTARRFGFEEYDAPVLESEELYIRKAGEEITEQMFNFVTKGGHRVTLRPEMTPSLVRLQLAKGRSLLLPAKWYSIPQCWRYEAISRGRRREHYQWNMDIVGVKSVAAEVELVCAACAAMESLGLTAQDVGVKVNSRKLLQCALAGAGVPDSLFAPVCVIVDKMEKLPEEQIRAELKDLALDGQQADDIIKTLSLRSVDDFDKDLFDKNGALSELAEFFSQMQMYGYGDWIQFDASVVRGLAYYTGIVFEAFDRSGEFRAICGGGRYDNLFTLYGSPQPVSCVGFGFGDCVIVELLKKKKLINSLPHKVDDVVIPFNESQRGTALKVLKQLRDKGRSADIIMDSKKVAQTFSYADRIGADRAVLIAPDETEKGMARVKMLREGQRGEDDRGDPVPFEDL
UniProt Q4DA54, 1-478: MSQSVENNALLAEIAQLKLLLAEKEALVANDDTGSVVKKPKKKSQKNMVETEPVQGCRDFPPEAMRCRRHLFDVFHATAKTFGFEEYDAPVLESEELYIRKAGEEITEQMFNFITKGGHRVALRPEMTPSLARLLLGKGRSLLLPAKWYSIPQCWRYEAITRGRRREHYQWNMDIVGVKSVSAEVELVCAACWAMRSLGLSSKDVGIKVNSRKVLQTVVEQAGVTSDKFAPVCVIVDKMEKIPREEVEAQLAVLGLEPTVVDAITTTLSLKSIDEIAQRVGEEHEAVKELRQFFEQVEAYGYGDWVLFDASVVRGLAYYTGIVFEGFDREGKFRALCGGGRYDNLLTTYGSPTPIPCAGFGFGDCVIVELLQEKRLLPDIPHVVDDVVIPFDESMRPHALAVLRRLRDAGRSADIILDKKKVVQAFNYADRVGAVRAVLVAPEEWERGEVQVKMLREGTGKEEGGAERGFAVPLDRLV

The values are deposited in ChEMBL (CHEMBL3988442, “University of Dundee, Small-Polar-MMV Screening Library” (2021)).

Each number is a percent effect as filed.
How 0% and 100% were set is not recorded. Most values in the screen are low, and negative values occur.
Compounds were drawn at random from those tested, without regard to their results.

LiHisRS: 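Histidine-tRNA ligase, Leishmania infantum (UniProt A4I591). Enzyme assay of histidyl-tRNA synthetase; the read-out is not stated. Compounds at 30 µM. Direction is inferred from retests: higher values go with stronger inhibition. The assay is labelled LdHisRS but filed under L. infantum. Size under these conditions: about 69,000 compounds, about 410 of them at 50% or above in at least one test.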
TcHisRS: 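Enzyme assay of histidyl-tRNA synthetase; the read-out is not stated. Target: Histidine-tRNA ligase, Trypanosoma cruzi CL Brener (UniProt Q4DA54). Tested at 30 µM. Direction is inferred from retests: higher values go with stronger inhibition. Size under these conditions: about 69,000 compounds, about 31 of them at 50% or above in at least one test.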

compound | LiHisRS | TcHisRS
CN(CCN1CCCCCC1)C(=O)c1c(O)cccc1O | 6.25 | 5.319
COCC(C)NC(=O)c1nnn(-c2ccc(Br)cc2)n1 (stereo unspecified) | -4.274 | 6.667
CSCCC(=O)N1CCCN(c2ccccc2C)CC1 | 30.3 | -1.087
O=C(NC1CC1)c1cc(C2CCCN(Cc3ccccn3)C2)no1 (stereo unspecified) | 11.72 | 6.084
N#Cc1ccnc(N2CCN(CC(O)c3ccc(F)cc3F)CC2)c1 (stereo unspecified) | 18.18 | 4.233
Cc1ccc(CCC(=O)N2CCOCC2c2ncon2)c(C)c1 (stereo unspecified) | 10.91 | 2.924
Cc1ccc(C)c(CN(C)Cc2nnc3ccccn23)c1 | 21.05 | -2.793
Cc1ccc(NC(=O)CN(C)C(=O)c2ccc(-n3cccc3)nc2)nc1 | 4.274 | 6.667
O=C(CN1CCN(CCO)CC1)NC(C1CC1)C1CC1 | -17.54 | 2.521
O=C(CCc1nc(Cl)n[nH]1)NC1CCCN(CC2CCCCC2)C1 (stereo unspecified) | 16.13 | 9.195
Cc1nc(CN2CCC3(CC2)NC(=O)CC3c2cccnc2)cs1 (stereo unspecified) | 21.1 | 3.365
Cc1ccc(CN2C[C@H]3CN(Cc4ccccc4Cl)CCN3C2=O)cc1 | 38.89 | 13.86
CN1C(=O)CC(c2ccccc2)C12CCN(c1ncccn1)CC2 (stereo unspecified) | 2 | 2.062
c1ccc(N2CCOC3(CCCN(c4ncccn4)C3)C2)nc1 (stereo unspecified) | 11.88 | 7.538
O=C1COc2ccc(C(=O)NS(=O)(=O)c3ccccc3Cl)cc2N1 | 9.649 | 1.156
Cc1noc(C)c1CSCc1csc(CS(C)(=O)=O)n1 | 24.49 | 10
CC(C)n1cc(CN2CCCN(C(=O)c3cccn3C)CC2)cn1 | 4.839 | 5.155
CN(c1nc(Cn2cc(Br)ccc2=O)cs1)C1CC1 | 10.45 | 1.064
CC(NC(=O)NC1CC1)c1nc(-c2ccccc2)cs1 (stereo unspecified) | 15.32 | -30
CC(C)Cn1nnnc1SC(C(=O)NCc1cccnc1)C(C)C (stereo unspecified) | 5.217 | 4.023
CCSCCn1cc(-c2nccs2)nn1 | 13.11 | 8.8
C[C@@H](O)CNc1c(NCc2ccco2)c(=O)c1=O | 4.348 | 4
COc1c(C)cnc(CN(C)C(=O)c2ccccn2)c1C | 3.306 | 3.361
CC1(C)OCC2(CO1)CN(S(=O)(=O)c1ccc(Cl)s1)C2 | 12.17 | -3.093
Cc1cc(OCC(O)c2nc3c([nH]2)CC(C)(C)CNC3=O)ccc1Cl (stereo unspecified) | 15.22 | 2.97
CCn1cc(NC(=O)C2CCN(Cc3noc(C4CC4)n3)CC2)cn1 | 12.28 | 1.433
CN1CCC2(C=C(C(=O)N(C)C)c3ccccc32)CC1 | 6.306 | 3.315
COc1ccc(C(=O)NCc2ccc(C(=O)O)o2)cc1 | 14.94 | 7.216
Cc1ccccc1C(C)N(C)Cc1nc2c(cnn2C)c(=O)[nH]1 (stereo unspecified) | 16.51 | 5.539
CN(C)C(=O)C1CCCN1C(=O)c1ccc(Cn2ccnc2)o1 (stereo unspecified) | 3.947 | 4.433
Cn1cc(CN2C[C@H]3CN(c4cncnc4)C(=O)[C@H]3C2)cn1 | 31.51 | 7.921
N#Cc1ccccc1N1CCC(Nc2nccnc2C#N)CC1 | -0.8403 | 6.863
N#Cc1c(C2CC2)cc(-c2ccc(F)c(F)c2)nc1N | 19.47 | 3.571
CC(C)Nc1ncnc2c1CCN(C(=O)Cc1cccs1)CC2 | 17.43 | 10.92
OCCCN1CCOC(c2ccc(F)cc2)C1 (stereo unspecified) | 18.68 | 5.941
CC(=O)N1CCC(Cc2cccc(-c3ccnn3C)n2)CC1 | 11.27 | 5.303
CCn1cc(CCC(=O)NCc2csc(C3CC3)n2)c(C)n1 | 14.61 | 7.772
COc1cc(N(C)CCCn2nc(C)cc2C)ncn1 | 8.333 | 2.609
COc1ccc(OC2CCN(C(=O)C3CCCN(C)C3)CC2)cc1 (stereo unspecified) | 6.593 | 10.24
O=S(=O)(Cc1cc(-c2ccccc2)no1)CC1CCCO1 (stereo unspecified) | 18.37 | 14
Cc1c2ncn(CC(=O)c3ccccc3)c(=O)c2nn1C | 23.53 | 3.704

Repeated from the top, 5 entries:

| compound | LiHisRS | TcHisRS |
|---|---|---|
| `CN(CCN1CCCCCC1)C(=O)c1c(O)cccc1O` | 6.25 | 5.319 |
| `COCC(C)NC(=O)c1nnn(-c2ccc(Br)cc2)n1` (stereo unspecified) | -4.274 | 6.667 |
| `CSCCC(=O)N1CCCN(c2ccccc2C)CC1` | 30.3 | -1.087 |
| `O=C(NC1CC1)c1cc(C2CCCN(Cc3ccccn3)C2)no1` (stereo unspecified) | 11.72 | 6.084 |
| `N#Cc1ccnc(N2CCN(CC(O)c3ccc(F)cc3F)CC2)c1` (stereo unspecified) | 18.18 | 4.233 |